In PubChem BioAssay AID2685 (National Center for Advancing Translational Sciences (NCATS), 2010) one finds cell number change and AC50 data, which are given here for 58 compounds.

SMILES strings stand for the structures. Some of the results follow. These are further read-outs of the screen, such as a control signal, another cell line or another target. No call is given for them. Most of these compounds were active or inconclusive in the main read-out, so they are no random draw. Potencies come from curve fits of mixed quality, noted in brackets.

The nature of this test: qHTS Assay for Lipid Storage Modulators in Drosophila S3 Cells.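 On cell number change: cells counted by Cell Tracker Red CMTPX staining in the red channel.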 The conditions noted are these: BODIPY lipid droplet fluorescence, 18-24 h; for cell number change: measured here: cell count max response, cells fed with added oleic acid. In short, it runs like this:
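Drosophila S3 cells got compounds at several concentrations plus oleic acid (400 uM solution). Laser-scanning cytometry with 488 nm excitation read lipid droplets at 500-530 nm and cells at 575-640 nm. Percent activity was relative to 20 uM Triacsin C.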
On the technique in general: qHTS replaces the single test concentration by a dilution series.

[1] abbreviates: measured here: lipid fluorescence (Fed channel) AC50, cells fed with added oleic acid.
[2] abbreviates: measured here: cell number channel AC50, cells fed with added oleic acid.

Take `CCCC1(c2ccccc2)NC(=O)N(CC(=O)N2CC(=O)Nc3ccccc32)C1=O` (stereo not drawn): the cell number change is -0.211%.
With `Cc1cc(C)n(-c2nncn2/N=C/c2ccccc2F)n1`, the cell number change came out at 20.5%. The AC50 (as a rule, the midpoint of the concentration-response curve, whichever way the signal moves) under setting [1] was 0.731 µM [rising, single point].
In the case of `C/C(=N\NC(=O)CN(c1ccccc1Br)S(C)(=O)=O)c1cccs1`, the cell number change is -59.6%. Further, the AC50 under setting [2] was 6.51 µM [falling, partial curve]. Moreover, the concentration at half-maximal activity (AC50) under setting [1] was 13 µM [falling, partial curve].
For the compound `COc1ccccc1-n1cnnc1SCC(=O)N1CCN(S(=O)(=O)c2ccccc2)CC1`, the AC50 under setting [2] was 6.51 µM [rising, single point] and the half-maximal activity concentration (AC50) under setting [1] was 3.26 µM [rising, full curve].
With `Cc1cnc(NC(=O)CSc2nnc(COc3c(C)cccc3C)o2)s1`, the cell number change was -18.9%. Further, under setting [1], the AC50 is 29.1 µM [falling, single point].
For the compound `Cc1cc(S(=O)(=O)Nc2c(C)nn(C)c2C)c(Cl)cc1Cl`, the cell number change was determined as 8.19%. In addition, the AC50 under setting [2] was 5.8 µM [falling, single point].
`CCCOC(=O)CCCCCCCCC(O)CN1CCCCC1` (stereo not drawn): the cell number change was -74.2%. The AC50 under setting [2] was 16.4 µM [falling, single point]. Further, under setting [1], the AC50 was 13 µM [falling, partial curve].
Consider `CCCCN(CC)c1nc(N)c2c(N)nc(OCC)cc2c1C#N`, for which the AC50 is, setting by setting: under setting [2], 1.46 µM [rising, partial curve]; under setting [1], 0.58 µM [rising, full curve].
In the case of `O=C(CCC1CCCCC1)Nc1nncs1`, the cell number change was -16.5%. In addition, under setting [1], the AC50 is 23.1 µM [rising, single point].
For the compound `CCCC(C(=O)NC(C)(C)C)N(CCN1CCOCC1)C(=O)CNS(=O)(=O)c1ccccc1` (stereo not drawn), the cell number change was 8.7%.
As to `CCCCNC(=O)C(CC)(ONc1ccccc1C(F)(F)F)c1ccccc1OC` (stereo not drawn), the cell number change was -43.3%. Further, the AC50 under setting [2] is 13 µM [falling, partial curve]. Also, the AC50 under setting [1] is 2.06 µM [rising, partial curve, poor fit].
Turning to `O=C1O[C@H]([C@@H](O)CO)C(O)=C1O`, the AC50 under setting [2] was 2.91 µM [rising, single point].
For `Cc1[nH]c2ccccc2c1CCNC(=O)c1ccc2c(c1[N+](=O)[O-])C(=O)c1ccccc1C2=O`, the cell number change was -37.2%. The AC50 under setting [2] is 29.1 µM [falling, single point]. Under setting [1], the AC50 is 29.1 µM [falling, single point].
As to `CCOc1c(N2CCOCC2)c(=O)c1=O`, the AC50 under setting [2] is 2.31 µM [falling, single point] and the AC50 under setting [1] was 4.11 µM [falling, single point].
Consider `Cc1cc(N(CC(=O)O)S(C)(=O)=O)ccc1Br`, for which the cell number change is -22.2%. Further, the AC50 under setting [1] was 1.84 µM [falling, full curve, poor fit].
Take `COc1ccc(-c2nc3cnccn3c2Nc2ccc3c(c2)OCO3)cc1`: the cell number change was 4.15%. For the same compound, under setting [1], the AC50 was 8.2 µM [rising, partial curve, poor fit].
With `CC(=O)OCC(=O)N1N=C(c2ccc3ccccc3c2)CC1c1ccccc1` (stereo not drawn), the cell number change came to 45.6%.
`Cc1ccc2c(c1)C(c1ccc(F)cc1)N(C(=O)C1CC1)CC(=O)N2` (stereo not drawn): the cell number change is -66%. The AC50 under setting [2] was 3.26 µM [falling, partial curve]. Further, the AC50 under setting [1] is 0.184 µM [rising, full curve].
As for `CCOc1cc(C(=O)OCC(=O)Nc2cccc(C)c2)ccc1OCC(=O)N1CCOCC1`, the cell number change turned out to be 31.1%. Also, the AC50 under setting [2] is 29.1 µM [rising, partial curve]. For the same compound, the AC50 under setting [1] is 25.9 µM [rising, partial curve].
For the compound `Cc1cc(C)cc(NC(=O)C2(c3cccs3)CCOCC2)c1`, the cell number change came out at 16.2%. Also, under setting [1], the half-maximal activity concentration (AC50) was 1.46 µM [rising, partial curve].
As to `CC(=O)Nc1ccc(S(=O)(=O)N2CCN(C(=O)c3ncoc3-c3ccccc3C)CC2)cc1`, the cell number change is -9.21%. Besides, the AC50 under setting [1] was 5.62 µM [falling, single point].
Consider `CCOC(=O)C(C(=O)Nc1ccc(C)cc1)C1CCCCC1` (stereo not drawn), for which the cell number change was 43.8%. For the same compound, the AC50 under setting [2] is 18.4 µM [rising, single point]. Also, the AC50 under setting [1] was 1.03 µM [rising, full curve, poor fit].
`CS(=O)(=O)Nc1ccc(C2=NN(C(=O)c3ccco3)C(c3ccco3)C2)cc1` (stereo not drawn): the cell number change is -3.18%. Moreover, the AC50 under setting [1] is 6.51 µM [rising, partial curve, poor fit].
For `Cn1c(NC(=O)c2ccco2)cc(=O)n(C)c1=O`, the cell number change is -0.404%.
For the compound `CNC(=O)c1nnn(Cc2ccccc2)c1NC(C)=O`, the cell number change is -18.8%. The AC50 under setting [1] was 0.146 µM [falling, single point].
As to `C/C(Cl)=C/CSc1nc2c(c(=O)[nH]c(=O)n2C)n1C(C)C`, the cell number change was 22.4%. The AC50 under setting [1] is 23.1 µM [rising, single point].
With `COc1cccc(-c2nnc(NC(=O)c3cccc(F)c3)o2)c1`, the cell number change is -30.3%. Further, the AC50 under setting [2] was 23.1 µM [falling, single point]. Besides, the AC50 under setting [1] is 29.1 µM [falling, single point].
As to `CC(=O)Nc1ccc(N(C(=O)c2ccco2)C(C(=O)NC2CCCC2)c2ccc(N(C)C)cc2)cc1` (stereo not drawn), the cell number change was -3.85%. For the same compound, under setting [1], the AC50 was 29.1 µM [falling, single point].
On to `COc1ccc(C(=O)COC(=O)c2ccc3c(c2)OCCO3)c(OC)c1`, for which the cell number change was -0.792%. In addition, the AC50 under setting [1] is 32.6 µM [falling, single point].
For `CCc1ccc(/C=N/NC(=O)c2nnn(-c3nonc3N)c2CN2CCc3ccccc32)cc1`, the cell number change was -17.1%.
`CCOC(=O)c1cnc(SCC(=O)Nc2nnc(CC)s2)nc1N`: the cell number change was found to be 11.7%. Further, the AC50 under setting [1] is 0.00461 µM [falling, full curve, poor fit].
`CC1CN(C(=O)CSc2nnc(-c3cccs3)n2N)CC(C)O1` (stereo not drawn): the cell number change is -20.3%.
With `O=S(=O)(c1ccc2ccccc2c1)N1CCN(C(=S)Nc2ccc(F)c(Cl)c2)CC1`, the cell number change was 3.14%. The AC50 under setting [1] is 0.651 µM [rising, full curve, poor fit].
Consider `COc1ccc(NC(=O)c2cc(S(=O)(=O)N3CCOCC3)ccc2N2CCOCC2)cc1`, for which, under setting [1], the AC50 was 29.1 µM [rising, partial curve, poor fit].
Regarding `CCCCn1c(SCc2cc(=O)[nH]c3ccccc23)nc2c1c(=O)n(C)c(=O)n2C`, the cell number change turned out to be 27.4%. For the same compound, the AC50 under setting [1] was 0.651 µM [rising, full curve].
With `CC1=C(C(=O)OC2CCCC2)C(c2coc3ccc(C)cc3c2=O)C2=C(CCCC2=O)N1` (stereo not drawn), the cell number change was -9.02%. Further, the AC50 under setting [2] is 6.51 µM [falling, single point]. The AC50 under setting [1] was 4.11 µM [falling, single point].
Regarding `CCOC(=O)c1nn(-c2cccc(Cl)c2)c(C)c1C(C)=O`, the cell number change was determined as 46.9%.
As for `C=CCOc1cccc(C2C(C(=O)c3ccc(C)o3)=C(O)C(=O)N2CCN(C)C)c1` (stereo not drawn), the cell number change is -1.89%.
Take `O=C(COC(=O)c1c2c(nc3ccccc13)/C(=C\c1cccs1)CCC2)Nc1ccccc1Cl`: under setting [1], the AC50 is 1.03 µM [falling, full curve].
For `CCN(CC)S(=O)(=O)c1ccc(N2CCOCC2)c(NC(=O)C23CC4CC(CC(Cl)(C4)C2)C3)c1`, the cell number change was -4.55%.
Regarding `Cc1ccc(-n2c(-c3ccco3)nc3nc4ccccc4nc32)cc1`, the cell number change was determined as 1.97%. Moreover, the AC50 under setting [1] is 0.731 µM [rising, full curve, poor fit].
Consider `Cc1oc(S(=O)(=O)N2CCCCC2)cc1NC(=O)Nc1ccc(Cl)cc1`, for which the cell number change was determined as 16.6%. Besides, under setting [2], the AC50 was 1.16 µM [rising, full curve, poor fit]. Under setting [1], the AC50 was 0.326 µM [rising, partial curve, poor fit].
Turning to `COc1cccc(CNC(=O)Cn2ccc3cc(S(=O)(=O)N4CCC(C)CC4)ccc32)c1`, the cell number change stood at 65.7%. The AC50 under setting [2] was 20.6 µM [rising, partial curve, poor fit].
Consider `COc1ccc(C(=O)O)cc1S(=O)(=O)N(CCc1ccccc1)Cc1ccccc1`, for which the cell number change is -20.5%. For the same compound, under setting [2], the AC50 was 7.31 µM [falling, partial curve, poor fit]. In addition, the AC50 under setting [1] is 6.51 µM [falling, single point].
With `Cc1ccc(S(=O)(=O)N2CCN(C(=O)[C@H](Cc3ccccc3)NC(=O)c3ccco3)CC2)cc1C`, the cell number change was -6.77%. Also, under setting [1], the concentration at half-maximal activity (AC50) was 0.103 µM [falling, full curve, poor fit].
For the compound `O=c1[nH]c(CSc2nnc(COc3ccccc3)n2-c2ccccc2)nc2ccccc12`, the cell number change is -12.6%.
`Cc1cccc(NC(=S)NNC(=O)CC(C)O)c1C` (stereo not drawn): the cell number change was -10.3%.
Take `CCc1ccc(N(CC(=O)NC(C)(C)C)C(=O)CNC(=O)c2cccs2)cc1`: the cell number change was -34.3%. Under setting [2], the AC50 is 9.2 µM [falling, partial curve, poor fit]. The AC50 under setting [1] was 6.51 µM [rising, partial curve].
Regarding `COc1cc(C(=O)OCC(=O)c2cc(C)n(CC3CCCO3)c2C)cc(OC)c1C` (stereo not drawn), the cell number change came out at 22.7%.
On to `Cc1noc(C)c1COC(=O)C1(c2cccc(F)c2)CCCC1`, for which the cell number change was -13.7%. In addition, the AC50 under setting [1] was 1.84 µM [rising, single point].
For `COc1ccc(CC(=O)Nc2sc(Cc3ccccc3)c(C)c2C(N)=O)cc1`, the cell number change is -23.9%. Besides, under setting [1], the AC50 was 29.1 µM [falling, single point].
As to `COCCNc1ncnc2c1cnn2Cc1ccccc1Cl`, the cell number change came to 62%. For the same compound, under setting [2], the AC50 was 16.4 µM [rising, partial curve]. Moreover, the AC50 under setting [1] was 6.51 µM [rising, single point].
Consider `CCN1C(=O)c2cccc3c(S(=O)(=O)N(C(=O)c4cccnc4)c4ccc(OC)cc4)ccc1c23`, for which the cell number change came out at 6.6%. For the same compound, the AC50 under setting [1] was 1.64 µM [rising, partial curve, poor fit].
Regarding `CS(=O)(=O)N(CC(=O)N1CCN(c2ccc(F)cc2)CC1)c1ccc(F)c(Cl)c1`, the cell number change came to 26.1%.
For the compound `Cc1ccccc1OCC(=O)N(Cc1cccs1)C1CCS(=O)(=O)C1` (stereo not drawn), the cell number change is 1.99%. For the same compound, the concentration at half-maximal activity (AC50) under setting [1] was 3.26 µM [rising, single point].
For the compound `CCOc1ccc(-c2nn3c(-c4ccccc4)nnc3s2)cc1`, the cell number change turned out to be 101%. Further, under setting [2], the AC50 is 13 µM [rising, partial curve]. Under setting [1], the AC50 is 0.92 µM [rising, partial curve].
`COc1cc(/C=C/c2ccc3cccc(O)c3n2)ccc1O`: the cell number change is -28%. Moreover, the AC50 under setting [1] was 16.4 µM [falling, partial curve].
Consider `CN(C)C(=O)CC12CC3CC(C1)CC(CC(=O)N(C)C)(C3)C2`, for which the cell number change is -11%.
